Laboratory results from patent US20040121460A1, “Differentiation of stem cells to pancreatic endocrine cells” (priority 2003, published 2004).
At least one structure is not confirmed: it was looked up by name or label, or the drawing left a doubt.

System: ES cell-derived insulin-secreting islet clusters
Test: Insulin secretion from ES cell-derived islet clusters, insulin ELISA
Type: cell-based, murine
Details: in the presence of high glucose concentrations (20 mM)
Protocol: A series of experiments were conducted to measure the kinetics and pharmacology of glucose-dependent insulin release. Insulin secretion was measured in Krebs-Ringer-bicarbonate buffer containing 120 mM NaCl, 5 mM KCl, 2.5 mM CaCl2, 1.1 mM MgCl2, 25 mM NaHCO3 and 0.1% bovine serum albumin at 37° C. Inhibitors of insulin secretion (nifedipine and diazoxide) were added to buffer during preincubation (30 min) and throughout the incubation period. For determination of total cellular insulin content, insulin was extracted from cells with acid ethanol (10% glacial acetic acid in absolute ethanol) overnight at 4° C., followed by cell sonication. Total cellular and secreted insulin was assayed using insulin ELISA kit (ALPCO, Windham, N.H.). Protein concentrations were determined using DC protein assay system (Bio-Rad, Hercules, Calif.).
To determine if the islet clusters utilize physiological glucose-mediated signaling pathways, the effect of several well-characterized agonists and antagonists of insulin secretion were examined. The mechanism by which glucose stimulates insulin secretion in vivo is complex. […]

COC(=O)C1=C(C)NC(C)=C(C(=O)OC)C1c1ccccc1[N+](=O)[O-] [nifedipine]
insulin secretion in the presence of antagonists (inhibitors): inhibited insulin secretion
